Results: publication PMC10821879
Results are given in words; binding and its absence hold for the method and conditions named. In cells and extracts the contact can be indirect. Some results given as binding are weak or reduced against the parent protein; the word gives no strength. Sequences can lack the tags named with a protein.

Protein sequences, listed by entry. Tags and fused reporters are not part of them.
UniProt P10275: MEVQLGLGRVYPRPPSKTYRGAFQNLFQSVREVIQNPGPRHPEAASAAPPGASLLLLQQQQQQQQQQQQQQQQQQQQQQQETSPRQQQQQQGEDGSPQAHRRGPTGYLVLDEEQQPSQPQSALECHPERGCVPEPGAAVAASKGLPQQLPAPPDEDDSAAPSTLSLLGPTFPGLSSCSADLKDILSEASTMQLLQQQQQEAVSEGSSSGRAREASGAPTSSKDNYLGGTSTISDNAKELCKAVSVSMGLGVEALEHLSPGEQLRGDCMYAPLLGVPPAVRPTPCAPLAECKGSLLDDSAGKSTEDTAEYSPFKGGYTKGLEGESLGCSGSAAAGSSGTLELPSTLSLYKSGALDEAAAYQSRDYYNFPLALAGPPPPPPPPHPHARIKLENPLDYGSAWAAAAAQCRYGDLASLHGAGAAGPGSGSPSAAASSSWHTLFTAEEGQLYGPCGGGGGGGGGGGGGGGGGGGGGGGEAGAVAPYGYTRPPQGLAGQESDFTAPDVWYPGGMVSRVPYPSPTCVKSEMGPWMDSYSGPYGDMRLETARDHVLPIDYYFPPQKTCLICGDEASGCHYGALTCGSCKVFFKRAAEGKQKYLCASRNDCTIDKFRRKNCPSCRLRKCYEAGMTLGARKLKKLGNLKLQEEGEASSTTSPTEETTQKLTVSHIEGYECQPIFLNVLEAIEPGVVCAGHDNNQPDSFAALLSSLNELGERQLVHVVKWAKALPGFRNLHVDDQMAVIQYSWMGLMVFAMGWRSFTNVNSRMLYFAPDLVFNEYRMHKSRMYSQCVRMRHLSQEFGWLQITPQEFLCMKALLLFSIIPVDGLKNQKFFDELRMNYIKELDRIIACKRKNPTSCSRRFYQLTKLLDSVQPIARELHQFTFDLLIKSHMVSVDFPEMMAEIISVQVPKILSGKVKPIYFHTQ

T1: Myc-tagged PCDH19 (Protocadherin 19) (UniProt Q8TAB3)
T1 sequence: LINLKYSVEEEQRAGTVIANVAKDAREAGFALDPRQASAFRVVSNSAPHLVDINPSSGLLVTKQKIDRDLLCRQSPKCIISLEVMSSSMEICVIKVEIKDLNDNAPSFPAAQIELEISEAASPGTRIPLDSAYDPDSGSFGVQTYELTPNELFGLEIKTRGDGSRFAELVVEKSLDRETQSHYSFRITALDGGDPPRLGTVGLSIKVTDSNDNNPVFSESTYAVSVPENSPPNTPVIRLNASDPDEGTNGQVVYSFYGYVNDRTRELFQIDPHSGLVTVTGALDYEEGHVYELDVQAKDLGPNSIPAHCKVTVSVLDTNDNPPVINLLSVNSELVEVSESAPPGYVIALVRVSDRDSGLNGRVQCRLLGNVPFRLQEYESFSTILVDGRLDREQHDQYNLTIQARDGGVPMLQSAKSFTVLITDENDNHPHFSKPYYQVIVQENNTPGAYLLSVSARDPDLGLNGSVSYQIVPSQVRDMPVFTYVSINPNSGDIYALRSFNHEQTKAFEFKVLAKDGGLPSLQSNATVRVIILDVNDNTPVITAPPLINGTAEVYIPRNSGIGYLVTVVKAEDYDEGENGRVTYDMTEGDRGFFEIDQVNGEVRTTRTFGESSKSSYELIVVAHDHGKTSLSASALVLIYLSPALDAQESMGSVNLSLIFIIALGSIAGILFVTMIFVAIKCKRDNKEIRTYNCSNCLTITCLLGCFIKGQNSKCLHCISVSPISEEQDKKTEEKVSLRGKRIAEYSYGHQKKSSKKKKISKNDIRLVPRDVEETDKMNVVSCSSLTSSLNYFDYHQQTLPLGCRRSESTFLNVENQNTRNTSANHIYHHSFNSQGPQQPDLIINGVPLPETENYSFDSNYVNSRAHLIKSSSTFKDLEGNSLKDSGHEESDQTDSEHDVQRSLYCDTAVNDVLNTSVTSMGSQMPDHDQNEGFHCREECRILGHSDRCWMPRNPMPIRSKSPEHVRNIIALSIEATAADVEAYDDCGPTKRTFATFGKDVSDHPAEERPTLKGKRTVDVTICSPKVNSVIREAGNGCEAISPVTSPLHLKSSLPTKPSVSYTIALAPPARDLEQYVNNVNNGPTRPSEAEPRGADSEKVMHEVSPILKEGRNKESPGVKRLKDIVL


Assays:
[1] = target: T1, Myc-tagged PCDH19 (Protocadherin 19); test: co-IP; lysates of transfected HEK293T cells; Myc-PCDH19 immunoprecipitated with anti-Myc magnetic beads overnight at 4 °C in IP Buffer; blotted for Myc-PCDH19 and FLAG-AR
[2] = target: FLAG-tagged Androgen Receptor (UniProt P10275); test: co-IP; lysates of transfected HEK293T cells; FLAG-AR immunoprecipitated with anti-FLAG agarose beads overnight at 4 °C in IP Buffer; blotted for FLAG-AR, HA-PCDH10 and HA-PCDH12

Row | binding [1] | binding [2] | Molecule
1 | binds |  | FLAG-tagged Androgen Receptor (from UniProt P10275 1-920)
2 |  | binds | HA-tagged PCDH10 (protein, UniProt Q9P2E7 19-1040) QLHYTVQEEQEHGTFVGNIAEDLGLDITKLSARGFQTVPNSRTPYLDLNLETGVLYVNEKIDREQICKQSPSCVLHLEVFLENPLELFQVEIEVLDINDNPPSFPEPDLTVEISESATPGTRFPLESAFDPDVGTNSLRDYEITPNSYFSLDVQTQGDGNRFAELVLEKPLDREQQAVHRYVLTAVDGGGGGGVGEGGGGGGGAGLPPQQQRTGTALLTIRVLDSNDNVPAFDQPVYTVSLPENSPPGTLVIQLNATDPDEGQNGEVVYSFSSHISPRARELFGLSPRTGRLEVSGELDYEESPVYQVYVQAKDLGPNAVPAHCKVLVRVLDANDNAPEISFSTVKEAVSEGAAPGTVVALFSVTDRDSEENGQVQCELLGDVPFRLKSSFKNYYTIVTEAPLDREAGDSYTLTVVARDRGEPALSTSKSIQVQVSDVNDNAPRFSQPVYDVYVTENNVPGAYIYAVSATDRDEGANAQLAYSILECQIQGMSVFTYVSINSENGYLYALRSFDYEQLKDFSFQVEARDAGSPQALAGNATVNILIVDQNDNAPAIVAPLPGRNGTPAREVLPRSAEPGYLLTRVAAVDADDGENARLTYSIVRGNEMNLFRMDWRTGELRTARRVPAKRDPQRPYELVIEVRDHGQPPLSSTATLVVQLVDGAVEPQGGGGSGGGGSGEHQRPSRSGGGETSLDLTLILIIALGSVSFIFLLAMIVLAVRCQKEKKLNIYTCLASDCCLCCCCCGGGGSTCCGRQARARKKKLSKSDIMLVQSSNVPSNPAQVPIEESGGFGSHHHNQNYCYQVCLTPESAKTDLMFLKPCSPSRSTDTEHNPCGAIVTGYTDQQPDIISNGSILSNETKHQRAELSYLVDRPRRVNSSAFQEADIVSSKDSGHGDSEQGDSDHDATNRAQSAGMDLFSNCTEECKALGHSDRCWMPSFVPSDGRQAADYRSNLHVPGMDSVPDTEVFETPEAQPGAERSFSTFGKEKALHSTLERKELDGLLTNTRAPYKPPYLTRKRIC
